Reference: patent publication US8952147B2 (Sanofi, priority 2009, dated 2015)

assay: peptide synthesis; settings: conjugation step

Substance | conjugation yield
Allyl (2-{2-[2-(2-{4-[(2R,3R)-3-((S)-1-{(E)-(3S,10R,16S)-10-[3-chloro-4-methoxy-benzyl]-3-isobutyl-6,6-dimethyl-2,5,9,12-tetraoxo-1,4-dioxa-8,11-diazacyclohexadec-13-en-16-yl}ethyl)oxiranyl]benzylamino}ethoxy)ethoxy]ethoxy}ethoxy)propanoate | 27%
FmocVal-Cit-PABAC-α-aminocryptophycin 77 | 95%

same assay, conditions: late stage modification step

Substance | step yield
4-((2S,3S)-3-{(S)-1-[(E)-(3S,10R,16S)-10-(3-Chloro-4-methoxybenzyl)-3-isobutyl-6,6-dimethyl-2,5,9,12-tetraoxo-1,4-dioxa-8,11-diazacyclohexadec-13-en-16-yl]ethyl}oxiranyl)-benzyl[2-methyl-2-(pyridin-2-yldisulfanyl)propyl]methylcarbamate | 30%
(1-{4-[(2R,3R)-3-((S)-1-{(E)-(3S,10R,16S)-10-[3-Chloro-4-methoxybenzyl]-3-isobutyl-6,6-dimethyl-2,5,9,12-tetraoxo-1,4-dioxa-8,11-diazacyclohexadec-13-en-16-yl}ethyl)-oxiranyl]benzyl}-1H-1,2,3-triazol-4-yl)butanoic acid | 76%
(4-{1-[(4-{(2R,3R)-3-[(S)-1-((E)-(3S,10R,16S)-10-{3-Chloro-4-methoxybenzyl}-3-isobutyl-6,6-dimethyl-2,5,9,12-tetraoxo-1,4-dioxa-8,11-diazacyclohexadec-13-en-16-yl)ethyl]-oxiranyl}benzyl)methylamino]methyl}-1,2,3-triazol-1-yl)butanoic acid | 80%
(4-{4-[(2R,3R)-3-((S)-1-{(E)-(3S,10R,16S)-10-[3-Chloro-4-methoxybenzyl]-3-isobutyl-6,6-dimethyl-2,5,9,12-tetraoxo-1,4-dioxa-8,11-diazacyclohexadec-13-en-16-yl}ethyl)-oxiranyl]benzyl}piperazin-1-yl)acetic acid | 55%
(E)-(3S,6R,10R,16S)-10-(3-Chloro-4-methoxybenzyl)-3-isobutyl-6-methyl-16-[(S)-1-((2R,3R)-3-{4-[4-(4-methyl-4-methyldisulfanylpentanoyl)piperazin-1-ylmethyl]phenyl}oxiranyl)-ethyl]-1,4-dioxa-8,11-diazacyclohexadec-13-ene-2,5,9,12-tetraone | 80%
(E)-(3S,6R,10R,16S)-10-(3-Chloro-4-methoxybenzyl)-16-{(S)-1-[(R)-3-(4-chloro-methylphenyl)oxiranyl]ethyl}-3-isobutyl-6-methyl-1,4-dioxa-8,11-diazacyclohexadec-13-ene-2,5,9,12-tetraone | 79%
(E)-(3S,10R,16S)-10-(3-Chloro-4-methoxybenzyl)-3-isobutyl-16-[(S)-1-((2R,3R)-3-{4-[4-({2-[2-(2-{2-methyl[2-mercapto-2-methylpropyl]aminoethoxy}ethoxy)ethoxy]ethyl}-methylamino)methyl]phenyl}oxiranyl)ethyl]-6,6-dimethyl-1,4-dioxa-8,11-diazacyclohexadec-13-ene-2,5,9,12-tetraone | 71%
(E)-(3S,10R,16S)-16-{(S)-1-[(2R,3R)-3-(4-Aminomethylphenyl)oxiranyl]ethyl}-10-(3-chloro-4-methoxybenzyl)-3-isobutyl-6,6-dimethyl-1,4-dioxa-8,11-diazacyclohexadec-13-ene-2,5,9,12-tetraone | 59%
(E)-(3S,10R,16S)-16-{(S)-1-[(2R,3R)-3-(4-Azidomethylphenyl)oxiranyl]ethyl}-10-(3-chloro-4-methoxybenzyl)-3-isobutyl-6,6-dimethyl-1,4-dioxa-8,11-diazacyclohexadec-13-ene-2,5,9,12-tetraone | 74%
(E)-(3S,10R,16S)-16-{(S)-1-[(2S,3S)-3-(4-Aminomethylphenyl)oxiranyl]ethyl}-10-(3-chloro-4-methoxybenzyl)-3-isobutyl-6,6-dimethyl-1,4-dioxa-8,11-diazacyclohexadec-13-ene-2,5,9,12-tetraone | 99%
(E)-(3S,10R,16S)-16-{(S)-1-[(2S,3S)-3-(4-Azidomethylphenyl)oxiranyl]ethyl}-10-(3-chloro-4-methoxybenzyl)-3-isobutyl-6,6-dimethyl-1,4-dioxa-8,11-diazacyclohexadec-13-ene-2,5,9,12-tetraone | 64%
Allyl (4-{4-[(2R,3R)-3-((S)-1-{(E)-(3S,10R,16S)-10-[3-chloro-4-methoxybenzyl]-3-isobutyl-6,6-dimethyl-2,5,9,12-tetraoxo-1,4-dioxa-8,11-diazacyclohexadec-13-en-16-yl}ethyl)-oxiranyl]benzyl}piperazin-1-yl)acetate | 56%
Glutaric acid-Val-Cit-PABAC-α-aminocryptophycin 72 | 48%
Glutaric acid-Val-Cit-PABAC-α-aminocryptophycin 77 | 104% crude
Methyl (1-{4-[(2R,3R)-3-((S)-1-{(E)-(3S,10R,16S)-10-[3-chloro-4-methoxybenzyl]-3-isobutyl-6,6-dimethyl-2,5,9,12-tetraoxo-1,4-dioxa-8,11-diazacyclohexadec-13-en-16-yl}ethyl)-oxiranyl]benzyl}-1H-1,2,3-triazol-4-yl)butanoate | 98%
Methyl (4-{1-[(4-{(2R,3R)-3-[(S)-1-((E)-(3S,10R,16S)-10-{3-chloro-4-methoxy-benzyl}-3-isobutyl-6,6-dimethyl-2,5,9,12-tetraoxo-1,4-dioxa-8,11-diazacyclohexadec-13-en-16-yl)ethyl]oxiranyl}benzyl)methylamino]methyl}-1,2,3-triazol-1-yl)butanoate | 62%
Methyl (4-{4-[(2R,3R)-3-((S)-1-{(E)-(3S,10R,16S)-10-[3-Chloro-4-methoxy-benzyl]-3-isobutyl-6,6-dimethyl-2,5,9,12-tetraoxo-1,4-dioxa-8,11-diazacyclohexadec-13-en-16-yl}ethyl)oxiranyl]benzyl}piperazin-1-yl)acetate | 34%
Val-Cit-PABAC-α-aminocryptophycin 72 | 82%
Val-Cit-PABAC-α-aminocryptophycin 77 | 60%

same assay, conditions: late stage modification step; run 1

Substance | step yield
(E)-(3S,10R,16S)-10-(3-Chloro-4-methoxybenzyl)-16-{(S)-1-[(R)-3-(4-chloro-methylphenyl)oxiranyl]ethyl}-3-isobutyl-6,6-dimethyl-1,4-dioxa-8,11-diazacyclohexadec-13-ene-2,5,9,12-tetraone | 81%

same assay, conditions: late stage modification step; run 2

Substance | step yield
(E)-(3S,10R,16S)-10-(3-Chloro-4-methoxybenzyl)-16-{(S)-1-[(R)-3-(4-chloro-methylphenyl)oxiranyl]ethyl}-3-isobutyl-6,6-dimethyl-1,4-dioxa-8,11-diazacyclohexadec-13-ene-2,5,9,12-tetraone | 87%
